Laboratory results published in doi:10.1101/2025.09.28.679056.
No constants are given. Whether binding was seen depends on the method and setting. Binding seen in cells or lysates may run through a third protein. Binding calls can cover weak binding; strength is not graded here.

Chains of the proteins cited; added tags and fusions are not shown. Lines headed by an entry give the natural chain unless they say otherwise; changes in a name come on top.
UniProt Q9Z2E4: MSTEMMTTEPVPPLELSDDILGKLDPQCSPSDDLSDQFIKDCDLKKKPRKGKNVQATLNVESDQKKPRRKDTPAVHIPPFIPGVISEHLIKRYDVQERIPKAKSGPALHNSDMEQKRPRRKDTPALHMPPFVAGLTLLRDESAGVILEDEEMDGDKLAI
UniProt O96001: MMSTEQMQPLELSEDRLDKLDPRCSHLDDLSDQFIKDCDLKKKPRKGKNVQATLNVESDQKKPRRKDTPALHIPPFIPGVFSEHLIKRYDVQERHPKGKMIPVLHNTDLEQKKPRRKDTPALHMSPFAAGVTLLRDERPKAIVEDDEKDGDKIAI
UniProt P62137: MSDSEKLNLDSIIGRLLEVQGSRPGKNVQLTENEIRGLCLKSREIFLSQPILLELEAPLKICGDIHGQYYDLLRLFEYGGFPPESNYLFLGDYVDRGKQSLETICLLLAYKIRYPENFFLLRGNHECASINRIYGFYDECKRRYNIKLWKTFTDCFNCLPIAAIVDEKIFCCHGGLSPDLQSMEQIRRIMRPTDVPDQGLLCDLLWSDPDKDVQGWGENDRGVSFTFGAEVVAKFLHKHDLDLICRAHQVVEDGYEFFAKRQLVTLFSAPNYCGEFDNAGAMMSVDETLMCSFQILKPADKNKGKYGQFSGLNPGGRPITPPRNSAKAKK
UniProt P67775: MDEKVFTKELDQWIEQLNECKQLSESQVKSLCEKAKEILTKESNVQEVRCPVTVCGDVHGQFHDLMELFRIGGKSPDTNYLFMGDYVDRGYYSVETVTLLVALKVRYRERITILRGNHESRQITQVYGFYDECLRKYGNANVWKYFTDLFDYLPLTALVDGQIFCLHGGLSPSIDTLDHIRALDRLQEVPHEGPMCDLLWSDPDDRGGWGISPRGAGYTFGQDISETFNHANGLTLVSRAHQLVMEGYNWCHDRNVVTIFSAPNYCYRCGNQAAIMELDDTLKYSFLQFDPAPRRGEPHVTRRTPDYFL

Tests used:
[1] = molecular target: PPP1R17 (in AtT-20 cells) (mouse (endogenous in AtT-20)) (UniProt Q9Z2E4); assay: co-IP
[2] = molecular target: PPP1R17 (human (endogenous in CD adenoma tissue)) (UniProt O96001); assay: proximity ligation

Substance	binding [1]	binding [2]
PP1-alpha (from UniProt P62137 1-330) (enzyme)	binds weakly	–
PP2Ac (from UniProt P67775) (enzyme)	–	binds
